Each number is a percent effect as filed. How 0% and 100% were set is not recorded. Most values in the screen are low, and negative values occur. This is an unselected part of the compounds tested.

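Whole-cell assay for inhibitors of Mycobacterium tuberculosis growth, labelled Cornell in the record; the read-out is not stated. The concentration is filed as 10 mM, unlikely as a test dose, so the dose is not known. The record gives no direction; compounds strong in two other growth screens of this library score well above the rest, so higher reads as stronger inhibition. Size under these conditions: about 53,000 compounds, about 900 of them at 50% or above in at least one test.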

| # | Compound | Percent Effect |
|---|---|---|
| 1 | `Cc1cccc2sc(NC(=O)CN3CCC(C)CC3)nc12` | 33.78 |
| 2 | `O=C(O)CSc1nnc(-c2ccco2)n1-c1ccccc1C(F)(F)F` | 13.98 |
| 3 | `Cc1cc(N(C)C)nc(C2(C)CCCN2C(=O)c2ccccc2)n1` (centres undefined) | -78.92 |
| 4 | `c1cc(C[C@H]2[C@H](N3CCOCC3)CCN2Cc2ccoc2)ccn1` | 12.55 |
| 5 | `CCOC(=O)C1CN(CC2CC2)Cc2ncn(CC)c21.O=C(O)C(F)(F)F` (centres undefined) | 11.8 |
| 6 | `CO[C@@H]1CCN(C(=O)c2cnoc2C)[C@H]1Cc1ccccc1` | 0.1592 |
| 7 | `CN(Cc1cncs1)C1CCN(C(=O)OC(C)(C)C)CC1` | 36.4 |
| 8 | `CN(C)c1ccc(NC(=O)NCc2ccccn2)cn1` | 47.78 |
| 9 | `COCCN1CCC2(CC1)CC(N1CCOCC1)c1ccc(C)cc12.O=C(O)C(F)(F)F.O=C(O)C(F)(F)F` (centres undefined) | -6.708 |
| 10 | `Cc1cc(N2CCC(N(C)Cc3cccnc3)C2=O)n(C)n1` (centres undefined) | -29.8 |
| 11 | `COc1ccc(Cc2noc(C3=NN(C)C(=O)CC3)n2)cc1OC` | 18.06 |
| 12 | `COc1ccc(CN2CCC3(CCCNC3)C2)cc1Cn1cccn1` (centres undefined) | 25.15 |
| 13 | `CCc1cc(N[C@H]2CCC[C@H]2CO)n2nccc2n1` | -27.28 |
| 14 | `CCCNC(=O)c1nc2c(o1)CN(C(C)=O)C2` | 26.32 |
| 15 | `O=C(C1CC1)N1CCC2(CC1)COCCN2Cc1ccc(F)cc1.O=C(O)C(F)(F)F` | -35.08 |
| 16 | `CCn1nc(C)c(NC(=O)CN2CC[C@@H](F)C2)c1C` | 10.58 |
| 17 | `CC1(C)CNC(=O)c2nc(-c3ccccc3)[nH]c2C1` | -49.27 |
| 18 | `Cc1ccc(C(=O)NC2CCN(CC(=O)N(C)c3ccccc3)CC2)o1` | -5.412 |
| 19 | `c1ccc(COCCN2CCc3[nH]cnc3C2c2ccco2)cc1` (centres undefined) | 48.89 |
| 20 | `CC(C)c1nc(CN2CCN(C(=O)OC(C)(C)C)C(C)C2)no1` (centres undefined) | 5.751 |
| 21 | `CNc1nccnc1C1CN(C(=O)c2cc[nH]n2)CCO1` (centres undefined) | 5.258 |
| 22 | `CCCNC(=O)C(C)NC(=O)CCc1ccccc1Br` (centres undefined) | 2.973 |
| 23 | `[H][C@@]12CN(C3CCOCC3)C[C@]1([H])N(CCc1ccc(OC)cc1)C(=O)O2` | -47.27 |
| 24 | `Clc1ccccc1Cc1noc(CN2CCCC(CN3CCCC3)C2)n1` (centres undefined) | 5.028 |
| 25 | `O=C(O)C(F)(F)F.O=C(O)C(F)(F)F.[H][C@@]12CCCO[C@]1([H])[C@H](OCCCn1cccn1)CN2c1nnc(C)s1` | 7.132 |
| 26 | `Nc1cc(-c2cc[nH]n2)nc(N2CCCC2)n1` | 12.54 |
| 27 | `Cc1nc(C)n(C2CCCN(C(=O)CCOCC(C)C)C2)n1` (centres undefined) | -31.18 |
| 28 | `O=C(NCCC1CCCCO1)c1coc(COc2ccc(F)cc2)n1` (centres undefined) | 14.89 |
| 29 | `O=C(CN(CC1CCC1)CC(F)(F)F)N1CCCC1` | 6.213 |
| 30 | `CC(C)(C)c1coc([C@@H]2COCCN2Cc2cnc3ccccc3c2)n1` | -0.9477 |
| 31 | `CCSc1ncc(CN(Cc2cnn(C)c2)CC(C)C)cn1` | -2.897 |
| 32 | `COc1ccc(CC2(C(=O)O)CCN(c3nc(C)ncc3C)CC2)cc1` | 13.76 |
| 33 | `O=C1CCC(C(=O)Nc2ccc(=O)n(Cc3ccc(Cl)c(Cl)c3)c2)N1` (centres undefined) | 11.62 |
| 34 | `Cc1cc(-c2nn3c(C)nnc3s2)n[nH]1` | -24.48 |
| 35 | `O=C(O)C(F)(F)F.[H][C@@]12CCN(Cc3cccc(C)n3)[C@@]1([H])CCN2C(=O)c1cc(C)oc1C` | 16.21 |
| 36 | `COCCOc1ccccc1NC(C)C(=O)NC(=O)NC(C)(C)C` (centres undefined) | 2.967 |
| 37 | `CCCn1[nH]cc/c1=N\C(=O)CN1CCCC1Cn1cccn1` (centres undefined) | 3.777 |
| 38 | `O=C(CSc1nc2c(cnn2CCO)c(=O)[nH]1)N1CCCCCC1` | -7.049 |
| 39 | `CCc1nc(CN2CCCC(N(C)Cc3nc(C)c(C)o3)C2)no1` (centres undefined) | -14.66 |
| 40 | `[H][C@@]12C[C@H](C(=O)NCc3ccccc3)[C@@]([H])(CN(C(=O)NC3CCCC3)C1)O2` | -33.72 |
| 41 | `CN(C)CCC1CCN(c2cc(N3CCCC3CO)ncn2)CC1` (centres undefined) | -19.44 |
| 42 | `CC(C)CN1CC(C(=O)NCCc2c[nH]cn2)CC1=O` (centres undefined) | -0.2506 |
| 43 | `CCc1onc(C)c1C(=O)N1CCN(c2ncc3c(n2)CCOC3)CC1.Cl` | 47.73 |
| 44 | `O=C(Cc1ccccc1Cl)NCC1CCN(Cc2ccsc2)CC1` | 25.54 |
| 45 | `Cc1ncsc1C(=O)NCCn1nc2ccccn2c1=O` | 14.86 |
| 46 | `c1ccc2nc(NCC3(N4CCOCC4)CCSC3)cnc2c1` (centres undefined) | -44.83 |
| 47 | `O=C(O)C(F)(F)F.[H][C@@]12CCN(Cc3ccc4c(c3)OCO4)C[C@]1(C(=O)NC)CCO2` | -19.8 |
| 48 | `O=C(NC1CC1)C1=CC2(CCN(CCO)CC2)c2ccccc21.O=C(O)C(F)(F)F` | 14.2 |
| 49 | `CC(NC(=O)CCC(=O)c1cccs1)c1nnc2n1CCC2` (centres undefined) | 12.86 |
| 50 | `O=C(O)C(F)(F)F.O=C(O)C(F)(F)F.OCCN1CC2(CCN(c3ccccc3)C2)C1` | -8.307 |
| 51 | `Cc1nn(C)cc1-c1cc(C(=O)NCC(C)(C)c2ccccc2F)n[nH]1` | -16.11 |
| 52 | `COc1ccc(CN2CCC3(CC2)CC(CC(=O)NC(C)C)CO3)cc1.O=C(O)C(F)(F)F` (centres undefined) | 8.727 |
| 53 | `CC1(C(=O)NC2CCCC2)CCCN(c2cnccn2)C1` (centres undefined) | 15.8 |
| 54 | `COc1c(CNCc2cccnc2N2CCOCC2)c(C)nn1C` | 6.508 |
| 55 | `COC(=O)CCCNC(=O)N1CCc2c(F)ccc(F)c2C1` | 28.22 |
| 56 | `Cc1ncccc1NS(=O)(=O)Cc1cccc(F)c1` | 40.71 |
| 57 | `O=C(CNC(=O)C1(c2ccc(F)cc2F)CCC1)Nc1ccccn1` | 49.05 |
| 58 | `COC(=O)c1oc(CNC(C)(C)c2ccc3c(c2)OCO3)cc1C` | 11.25 |
| 59 | `O=C(O)C(F)(F)F.[H][C@@]12CCCO[C@]1([H])[C@@H](NC(=O)N(C)C)CN2C1CCOCC1` | -5.304 |
| 60 | `Cn1cccc1C(O)CNC(=O)COc1ccc(Cl)cc1Cl` (centres undefined) | 63.83 |
| 61 | `CC(C)(C)c1cc(C[C@H]2CNCC[C@H]2CC(=O)NC2CCCCC2)no1` | -17.14 |
| 62 | `Cn1ccc(C(=O)N2CCCCC2c2cc(CCO)[nH]n2)n1` (centres undefined) | 36.62 |
| 63 | `N#Cc1c2n(c3c(=O)[nH]cnc13)CCCC2` | -4.743 |
| 64 | `[H][C@]12CCN(C(=O)C3CC=CC3)[C@@]1([H])CC[C@@H](COCC1CCOCC1)O2` | 33.31 |

For reference, 3 entries once more:

CC(C)(C)c1cc(C[C@H]2CNCC[C@H]2CC(=O)NC2CCCCC2)no1 read -17.14%.
CCOC(=O)C1CN(CC2CC2)Cc2ncn(CC)c21.O=C(O)C(F)(F)F (centres undefined) read 11.8%.
[H][C@@]12CN(C3CCOCC3)C[C@]1([H])N(CCc1ccc(OC)cc1)C(=O)O2 read -47.27%.

The values are deposited in ChEMBL (CHEMBL3988442, “University of Dundee, Small-Polar-MMV Screening Library” (2021)).